Values from PubChem BioAssay AID1671195 (Yale University, 2021)

Aim: 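Regulators of LDL receptor activity judged by labelled LDL uptake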 (primary screen)
Cell system: human Huh7 hepatoma cells
Knock-down reagent: siRNA pool against human genes, 18 nM
Duration: about 2 to 2.5 days of knockdown, then 8 h LDL uptake
Conditions: DiI-labelled LDL at 30 µg/ml for 8 h, in lipoprotein-deficient serum medium
Measured: 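Per-cell DiI-LDL intensity by automated imaging; well means scaled to the plate median and given as a robust z-score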
Reading the numbers: robust z-score: higher = more LDL uptake after knockdown
Call rule: 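Active when two or more replicates show a robust z-score above 2 or below -2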
Shown is a random part of about 22,000 deposited reagents. About 1,510 of all reagents (6.9%) were called active. 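Active includes knockdowns raising or lowering LDL uptake; positive z-scores mean more uptake, negative mean less.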 A number with no mark means an inactive call. Reagents against one gene are numbered here. No sequences are given here.

Target gene	reagent	robust z-score, replicate 1	robust z-score, replicate 2	robust z-score, replicate 3
ACP7 (GeneID 390928)	1	-1.08	-0.902	-0.945
SLC44A4 (GeneID 80736)	1	-1.78	-1.51	-1.35
HAPLN2 (GeneID 60484)	1	-1.03	-1.31	-1.37
LDHAL6A (GeneID 160287)	1	1.8	1.69	1.72
ZCCHC17 (GeneID 51538)	1	-1.02	1.06	-0.396
PRPF38B (GeneID 55119)	1	-0.669	0.513	-0.384
OXNAD1 (GeneID 92106)	1	-0.169	-0.533	-0.275
NRP2 (GeneID 8828)	1	0.912	0.676	0.487
AP4B1 (GeneID 10717)	1	-0.589	-0.491	-0.365
RAX2 (GeneID 84839)	1	0.954	0.766	0.635
NSUN5 (GeneID 55695)	1	1.47	0.12	4.08
PLPP7 (GeneID 84814)	1	1.43	1.45	1.48
CDC42EP2 (GeneID 10435)	1	-2.56	-0.572	-1.28
NDUFB6 (GeneID 4712)	1	1.2	1.48	1.04
IHH (GeneID 3549)	1	0.362	1.3	0.404
BRCA1 (GeneID 672)	1	-1.69	-1.53	-1.27
HSD3BP2 (GeneID 440606)	1	-0.0194	-0.382	-0.156
ENTPD3 (GeneID 956)	1	-0.00825	0.184	-0.898
IQCF1 (GeneID 132141)	1	-0.597	-0.542	-0.144
LOC400852 (retired record) (GeneID 400852)	1	-0.0502	-0.177	0.0618
LGR5 (GeneID 8549)	1	-1.47	-0.924	-1.05
PLAGL1 (GeneID 5325)	1	1.58	2.22	1.67
C3orf38 (GeneID 285237)	1	-0.718	-0.442	-0.59
FTH1 (GeneID 2495)	1	-1.1	-2.04	-1.42
LOC440046 (retired record) (GeneID 440046)	1	2.09	1.41	1.49
PURG (GeneID 29942)	1	0.133	1.39	1.14
CCDC144A (GeneID 9720)	1	-0.36	-1	-1.79
FOCAD (GeneID 54914)	1	0.093	0.109	1.08
LAMTOR5 (GeneID 10542)	1	0.886	0.752	1.23
TRIM55 (GeneID 84675)	1	0.103	-0.18	-0.137
TLCD5 (GeneID 219902)	1	-0.042	-0.192	-0.282
JKAMP (GeneID 51528)	1	-0.0293	-1.61	-1
EGFEM1P (GeneID 93556)	1	0.395	0.581	0.311
EGFEM1P (GeneID 93556)	2	-0.541	-0.0357	-0.539
EGFEM1P (GeneID 93556)	3	-0.571	-0.649	-0.654
NOS1AP (GeneID 9722)	1	0.188	-0.375	0.163
PITX2 (GeneID 5308)	1	-0.133	-0.858	0.548
SCGB3A2 (GeneID 117156)	1	-0.34	0.115	0.282
ARHGEF19 (GeneID 128272)	1	-2.14	-1.52	-1.77
LOC440513 (retired record) (GeneID 440513)	1	0.555	0.29	0.412
LOC400004 (retired record) (GeneID 400004)	1	1.43	0.898	0.545
PRICKLE1 (GeneID 144165)	1	0.596	0.313	-0.758
FBXL14 (GeneID 144699)	1	-0.764	-1.39	-0.444
ZPBP (GeneID 11055)	1	-0.482	-0.765	-1.09
MTMR3 (GeneID 8897)	1	1.8 (active)	2.05	2.51
MTMR3 (GeneID 8897)	2	1.27	1.39	1.02
SLC13A1 (GeneID 6561)	1	-0.292	-0.414	-0.317
LOC440007 (retired record) (GeneID 440007)	1	-0.121	-0.374	-0.473
NOP16 (GeneID 51491)	1	0.949	0.998	1.71
GOLPH3 (GeneID 64083)	1	-0.941	-0.364	-0.506
SRSF11 (GeneID 9295)	1	-1.55	-1.13	-1.87
LOC440930 (retired record) (GeneID 440930)	1	-0.219	-0.386	-0.65
ETV1 (GeneID 2115)	1	-0.272	-0.243	-0.0747
C19orf84 (GeneID 147646)	1	-0.301	-0.496	-0.363
CRYBB1 (GeneID 1414)	1	-0.583	0.87	-0.78
CIMIP4 (GeneID 339669)	1	2.73 (active)	2.97	1.96
ELAPOR1 (GeneID 57535)	1	4.32 (active)	6.02	3.01
MCM3AP (GeneID 8888)	1	0.0973	0.301	0.661
HRH3 (GeneID 11255)	1	-1	-1.56	-1.34
NAA40 (GeneID 79829)	1	0.756	0.37	0.795
BECN2 (GeneID 441925)	1	-0.198	0.0274	-0.669
ANGPTL4 (GeneID 51129)	1	-0.08	0.0684	0.188
CWF19L1 (GeneID 55280)	1	1.3	1.2	0.448
MID1 (GeneID 4281)	1	-0.094	-1.75	-1.85
RSPH3 (GeneID 83861)	1	-1.15	-1.48	-1.63
NUDT3 (GeneID 11165)	1	0.0736	0.0586	-0.0387
RFFL (GeneID 117584)	1	1.56	0.27	1.48
EEF1B2 (GeneID 1933)	1	-1.18	-1.06	-0.832

Laid out differently: results already given
CRYBB1 (GeneID 1414) → robust z-score, replicate 1 = -0.583; robust z-score, replicate 2 = 0.87; robust z-score, replicate 3 = -0.78
CIMIP4 (GeneID 339669) → robust z-score, replicate 1 = 2.73 (active); robust z-score, replicate 2 = 2.97; robust z-score, replicate 3 = 1.96
ELAPOR1 (GeneID 57535) → robust z-score, replicate 1 = 4.32 (active); robust z-score, replicate 2 = 6.02; robust z-score, replicate 3 = 3.01
MCM3AP (GeneID 8888) → robust z-score, replicate 1 = 0.0973; robust z-score, replicate 2 = 0.301; robust z-score, replicate 3 = 0.661
HRH3 (GeneID 11255) → robust z-score, replicate 1 = -1; robust z-score, replicate 2 = -1.56; robust z-score, replicate 3 = -1.34
NAA40 (GeneID 79829) → robust z-score, replicate 1 = 0.756; robust z-score, replicate 2 = 0.37; robust z-score, replicate 3 = 0.795
BECN2 (GeneID 441925) → robust z-score, replicate 1 = -0.198; robust z-score, replicate 2 = 0.0274; robust z-score, replicate 3 = -0.669
ANGPTL4 (GeneID 51129) → robust z-score, replicate 1 = -0.08; robust z-score, replicate 2 = 0.0684; robust z-score, replicate 3 = 0.188
